Test results reported in PMC11005723, “Development of Complementary Photo‐arginine/lysine to Promote Discovery of Arg/Lys hPTMs Interactomes” (Advanced Science, 2024).
This continues a long series; more values of the same kind are listed elsewhere.

Test system: HEK293T nuclear lysates
Assay: SILAC‐based pull‐down proteomics H4K5me1/H4K5 (probes 6/5)
Type: binding, human

Substance: probe 6: H4K5me peptide probe with photo‐arginine R(dz) and K(biotin) (SGRGKGGKGLGKGGK; photo-arginine R(dz) at 3; monomethyl-lysine at 5; K(biotin) at 15)
- B6 log2 (H4K5me/H4K5) (protein F8WJN3 CPSF6, run B6): 0.3045
- C6 log (H4K5me/H4K5) (protein F8WJN3 CPSF6, run C6): 0.1297
- B6 log2 (H4K5me/H4K5) (protein FAM98B isoform 2 (Q52LJ0-2), SILAC run B6): -0.3868
- C6 log (H4K5me/H4K5) (protein FAM98B isoform 2 (Q52LJ0-2), SILAC run C6): -0.2048
- B6 log2 (H4K5me/H4K5) (protein FANCD2 isoform 2 (Q9BXW9-2), SILAC run B6): -0.6376
- C6 log (H4K5me/H4K5) (protein FANCD2 isoform 2 (Q9BXW9-2), SILAC run C6): 0.0887
- B6 log2 (H4K5me/H4K5) (protein FEN1 (P39748), SILAC run B6): -0.2907
- C6 log (H4K5me/H4K5) (protein FEN1 (P39748), SILAC run C6): -0.1919
- B6 log2 (H4K5me/H4K5) (protein FHL1 (Q5JXI8), run B6): -0.004407
- C6 log (H4K5me/H4K5) (protein FHL1 (Q5JXI8), run C6): 0.2442
- B6 log2 (H4K5me/H4K5) (protein FLNA (A0A087WWY3), run B6): 0.05691
- C6 log (H4K5me/H4K5) (protein FLNA (A0A087WWY3), run C6): 0.01778
- B6 log2 (H4K5me/H4K5) (protein FOXK1 (P85037), run B6): 0.01978
- C6 log (H4K5me/H4K5) (protein FOXK1 (P85037), run C6): 0.003876
- B6 log2 (H4K5me/H4K5) (protein FTSJD2 (Q8N1G2), run B6): 0.001052
- C6 log (H4K5me/H4K5) (protein FTSJD2 (Q8N1G2), run C6): 0.02532
- B6 log2 (H4K5me/H4K5) (protein FUBP1 (Q96AE4), run B6): 0.04743
- C6 log (H4K5me/H4K5) (protein FUBP1 (Q96AE4), run C6): -0.04434
- B6 log2 (H4K5me/H4K5) (protein G3XAG1 ZNF512, run B6): 0.6036
- C6 log (H4K5me/H4K5) (protein G3XAG1 ZNF512, run C6): 0.6036
- B6 log2 (H4K5me/H4K5) (protein G5E9W3 CPSF3, run B6): 0.2855
- C6 log (H4K5me/H4K5) (protein G5E9W3 CPSF3, run C6): -0.07168
- B6 log2 (H4K5me/H4K5) (protein GABPA (Q06546), run B6): -0.01399
- C6 log (H4K5me/H4K5) (protein GABPA (Q06546), run C6): 0.008695
- B6 log2 (H4K5me/H4K5) (protein GDI2 (P50395), SILAC run B6): -0.385
- C6 log (H4K5me/H4K5) (protein GDI2 (P50395), SILAC run C6): -0.1229
- B6 log2 (H4K5me/H4K5) (protein GNB2L1 (P63244), SILAC run B6): -0.4063
- C6 log (H4K5me/H4K5) (protein GNB2L1 (P63244), SILAC run C6): 0.07008
- B6 log2 (H4K5me/H4K5) (protein GNL3 (Q9BVP2), run B6): 0.01618
- C6 log (H4K5me/H4K5) (protein GNL3 (Q9BVP2), run C6): -0.01298
- B6 log2 (H4K5me/H4K5) (protein GPALPP1 (A0A0A0MRI1), run B6): -0.02262
- C6 log (H4K5me/H4K5) (protein GPALPP1 (A0A0A0MRI1), run C6): -0.497
- B6 log2 (H4K5me/H4K5) (protein GRWD1 (Q9BQ67), run B6): -0.01529
- C6 log (H4K5me/H4K5) (protein GRWD1 (Q9BQ67), run C6): -0.1902
- B6 log2 (H4K5me/H4K5) (protein GSPT1 (H3BR35), SILAC run B6): -0.2123
- C6 log (H4K5me/H4K5) (protein GSPT1 (H3BR35), SILAC run C6): -0.4483
- B6 log2 (H4K5me/H4K5) (protein GTF2E1 (C9IYL4), SILAC run B6): -0.2624
- C6 log (H4K5me/H4K5) (protein GTF2E1 (C9IYL4), SILAC run C6): 0.001099
- B6 log2 (H4K5me/H4K5) (protein GTF2F1 (P35269), run B6): -0.02058
- C6 log (H4K5me/H4K5) (protein GTF2F1 (P35269), run C6): -0.09847
- B6 log2 (H4K5me/H4K5) (protein GTF2I (P78347), run B6): 0.06118
- C6 log (H4K5me/H4K5) (protein GTF2I (P78347), run C6): -0.04696
- B6 log2 (H4K5me/H4K5) (protein GTF3C1 (Q12789), SILAC run B6): -0.3507
- C6 log (H4K5me/H4K5) (protein GTF3C1 (Q12789), SILAC run C6): -0.1541
- B6 log2 (H4K5me/H4K5) (protein GTF3C2 (Q8WUA4), SILAC run B6): -0.2095
- C6 log (H4K5me/H4K5) (protein GTF3C2 (Q8WUA4), SILAC run C6): -0.1414
- B6 log2 (H4K5me/H4K5) (protein GTF3C3 (Q9Y5Q9), run B6): 0.08665
- C6 log (H4K5me/H4K5) (protein GTF3C3 (Q9Y5Q9), run C6): 0.0487
- B6 log2 (H4K5me/H4K5) (protein GTF3C4 (Q9UKN8), run B6): -0.001594
- C6 log (H4K5me/H4K5) (protein GTF3C4 (Q9UKN8), run C6): -0.132
- B6 log2 (H4K5me/H4K5) (protein H7C3I1 ST13, run B6): 0.4721
- C6 log (H4K5me/H4K5) (protein H7C3I1 ST13, run C6): 0.08786
- B6 log2 (H4K5me/H4K5) (protein HDAC1 (Q13547), run B6): 0.06689
- C6 log (H4K5me/H4K5) (protein HDAC1 (Q13547), run C6): 0.0445
- B6 log2 (H4K5me/H4K5) (protein HDAC2 (Q92769), run B6): 0.06048
- C6 log (H4K5me/H4K5) (protein HDAC2 (Q92769), run C6): 0.05567
- B6 log2 (H4K5me/H4K5) (protein HDGFRP2 (Q7Z4V5), SILAC run B6): -0.2157
- C6 log (H4K5me/H4K5) (protein HDGFRP2 (Q7Z4V5), SILAC run C6): -0.2495
- B6 log2 (H4K5me/H4K5) (protein HELLS (A0A087WSW7), SILAC run B6): -0.6994
- C6 log (H4K5me/H4K5) (protein HELLS (A0A087WSW7), SILAC run C6): -0.007075
- B6 log2 (H4K5me/H4K5) (protein HIRIP3 (Q9BW71), run B6): 0.09617
- C6 log (H4K5me/H4K5) (protein HIRIP3 (Q9BW71), run C6): -0.02201
- B6 log2 (H4K5me/H4K5) (protein HIST1H2AH (Q96KK5), SILAC run B6): -0.2375
- C6 log (H4K5me/H4K5) (protein HIST1H2AH (Q96KK5), SILAC run C6): -0.05107
- B6 log2 (H4K5me/H4K5) (protein HMGA1 (P17096), SILAC run B6): -0.2491
- C6 log (H4K5me/H4K5) (protein HMGA1 (P17096), SILAC run C6): -0.4117
- B6 log2 (H4K5me/H4K5) (protein HMGB3 (E9PES6), SILAC run B6): -0.4603
- C6 log (H4K5me/H4K5) (protein HMGB3 (E9PES6), SILAC run C6): -0.3766
- B6 log2 (H4K5me/H4K5) (protein HMGN5 (P82970), run B6): -0.02293
- C6 log (H4K5me/H4K5) (protein HMGN5 (P82970), run C6): 0.008719
- B6 log2 (H4K5me/H4K5) (protein HN1L (H3BU16), run B6): 0.01543
- C6 log (H4K5me/H4K5) (protein HN1L (H3BU16), run C6): -0.0616
- B6 log2 (H4K5me/H4K5) (protein HNRNPA2B1 (P22626), run B6): 0.09679
- C6 log (H4K5me/H4K5) (protein HNRNPA2B1 (P22626), run C6): 0.03367
- B6 log2 (H4K5me/H4K5) (protein HNRNPA3 (P51991), run B6): -0.014
- C6 log (H4K5me/H4K5) (protein HNRNPA3 (P51991), run C6): 0.0433
- B6 log2 (H4K5me/H4K5) (protein HNRNPD (Q14103), run B6): 0.1113
- C6 log (H4K5me/H4K5) (protein HNRNPD (Q14103), run C6): 0.0238
- B6 log2 (H4K5me/H4K5) (protein HNRNPDL (A0A087WUK2), run B6): 0.07155
- C6 log (H4K5me/H4K5) (protein HNRNPDL (A0A087WUK2), run C6): 0.1568
- B6 log2 (H4K5me/H4K5) (protein HNRNPK (P61978), run B6): 0.1161
- C6 log (H4K5me/H4K5) (protein HNRNPK (P61978), run C6): 0.04993
- B6 log2 (H4K5me/H4K5) (protein HNRNPLL (C9IYN3), run B6): 0.01069
- C6 log (H4K5me/H4K5) (protein HNRNPLL (C9IYN3), run C6): -0.03826
- B6 log2 (H4K5me/H4K5) (protein HNRNPM (P52272), run B6): -0.005939
- C6 log (H4K5me/H4K5) (protein HNRNPM (P52272), run C6): -0.1401
- B6 log2 (H4K5me/H4K5) (protein HNRNPR (O43390), run B6): 0.04397
- C6 log (H4K5me/H4K5) (protein HNRNPR (O43390), run C6): 0.3897
- B6 log2 (H4K5me/H4K5) (protein HNRNPUL2 (Q1KMD3), run B6): 0.06176
- C6 log (H4K5me/H4K5) (protein HNRNPUL2 (Q1KMD3), run C6): 0.2537
- B6 log2 (H4K5me/H4K5) (protein HPRT1 (P00492), SILAC run B6): -0.3403
- C6 log (H4K5me/H4K5) (protein HPRT1 (P00492), SILAC run C6): -0.132
- B6 log2 (H4K5me/H4K5) (protein HSP90AB1 (P08238), run B6): 0.06955
- C6 log (H4K5me/H4K5) (protein HSP90AB1 (P08238), run C6): -0.04407
- B6 log2 (H4K5me/H4K5) (protein HSP90B1 (P14625), run B6): 0.007536
- C6 log (H4K5me/H4K5) (protein HSP90B1 (P14625), run C6): -0.07511
- B6 log2 (H4K5me/H4K5) (protein HSPA1A (P08107), run B6): 0.05336
- C6 log (H4K5me/H4K5) (protein HSPA1A (P08107), run C6): 0
- B6 log2 (H4K5me/H4K5) (protein HSPA4 (P34932), run B6): 0.01519
- C6 log (H4K5me/H4K5) (protein HSPA4 (P34932), run C6): -0.08476
- B6 log2 (H4K5me/H4K5) (protein HSPA5 (P11021), SILAC run B6): -0.2997
- C6 log (H4K5me/H4K5) (protein HSPA5 (P11021), SILAC run C6): 0.1483
- B6 log2 (H4K5me/H4K5) (protein HSPH1 (Q92598), SILAC run B6): -0.2073
- C6 log (H4K5me/H4K5) (protein HSPH1 (Q92598), SILAC run C6): -0.4709
- B6 log2 (H4K5me/H4K5) (protein I3L0H8 DDX19A, run B6): 0.6127
- C6 log (H4K5me/H4K5) (protein I3L0H8 DDX19A, run C6): 0.6127
- B6 log2 (H4K5me/H4K5) (protein ILKAP (Q9H0C8), run B6): 0.1086
- C6 log (H4K5me/H4K5) (protein ILKAP (Q9H0C8), run C6): 0.1449
- B6 log2 (H4K5me/H4K5) (protein IPO7 (O95373), run B6): -0.006564
- C6 log (H4K5me/H4K5) (protein IPO7 (O95373), run C6): -0.4333
- B6 log2 (H4K5me/H4K5) (protein IPO8 (O15397), run B6): 0.06366
- C6 log (H4K5me/H4K5) (protein IPO8 (O15397), run C6): -0.05257
- B6 log2 (H4K5me/H4K5) (protein IWS1 (Q96ST2), run B6): 0.02663
